Numbering of substitutions follows the chain as printed. No constants are given. Whether binding was seen depends on the method and setting. Some binding calls cover weakened binding; strength is not graded here. For some of these results: Tags and fused reporters may be left off the sequences shown.
B1: DOM10-53-567 (c-myc tagged, pDOM5 supernatant) (protein, not shown: small tags and cut ends)
VH: GVQLLESGGGLVQPGGSLRLSCAASGFVFAWYDMGWVRQAPGKGLEWVSSIDWHGEVTYYADSVKGRFTISRDNSKNTLYLQMNSLRAEDTAVYYCATAEDEPGYDYWGQGTLVTVSS
B2: DOM10-53-567 (other)
VH: B1 VH
B3: DOM10-53-616 (other)
VH: B1 VH with A30P, E56K, V57I
B4: DOM10-53-546 (other)
VH: B1 VH with A30P, H54K, E56G, V57K
B5: DOM10-53-568 (other)
VH: B1 VH with E56K, V57I

By UniProt entry, the sequences of proteins in these tests, tags left out. Where a name states a change or a piece, a line headed by the entry shows the natural chain unless it says otherwise. Chains listed by the source or under a name are the forms on record and can include a tag or linker. Residues count along the entry.
Cynomolgus monkey IL-13 (Q0PW92, form named): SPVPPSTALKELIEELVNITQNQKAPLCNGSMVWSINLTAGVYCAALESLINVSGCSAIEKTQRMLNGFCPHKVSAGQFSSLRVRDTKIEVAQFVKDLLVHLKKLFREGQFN
UniProt Q864V6, residues 19-132: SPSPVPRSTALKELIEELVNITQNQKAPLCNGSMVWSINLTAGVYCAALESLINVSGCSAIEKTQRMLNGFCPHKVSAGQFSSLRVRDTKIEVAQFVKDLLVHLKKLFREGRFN

Target: T1, Cynomolgus monkey IL-13 (cynomolgus monkey, UniProt Q0PW92 21-132)
Test: Biacore screen of supernatants, 200Ru cyno IL-13 streptavidin chip

binding	Binder
binds	B1

Target: T1, Cynomolgus monkey IL-13
Test: summary of Biacore, ELISA and HEK STAT data

binding	Binder
binds	B2
binds	B3
binds	B4
binds	B5

Target: rhesus IL-13 (rhesus, UniProt Q864V6 19-132, limits assumed)
Test: description's summary of the examples; rhesus IL-13 was tested only in the HEK STAT assay

binding	Binder
binds	B2
binds	B3
binds	B4
binds	B5

Target: T1, Cynomolgus monkey IL-13
Test: Biacore SPR

binding	Binder
binds	B2
binds	B3
binds	B4
binds	B5

From patent publication US20110236380A1 (published 2011)
